The list shows a part of the results, in another mix than the full data. At the low end of the ranking, values are background and their order means little.

The chains behind the UniProt entries cited, without tags or fusion partners. Where a name states a change or a piece, a line headed by the entry shows the natural chain unless it says otherwise.
UniProt O43186: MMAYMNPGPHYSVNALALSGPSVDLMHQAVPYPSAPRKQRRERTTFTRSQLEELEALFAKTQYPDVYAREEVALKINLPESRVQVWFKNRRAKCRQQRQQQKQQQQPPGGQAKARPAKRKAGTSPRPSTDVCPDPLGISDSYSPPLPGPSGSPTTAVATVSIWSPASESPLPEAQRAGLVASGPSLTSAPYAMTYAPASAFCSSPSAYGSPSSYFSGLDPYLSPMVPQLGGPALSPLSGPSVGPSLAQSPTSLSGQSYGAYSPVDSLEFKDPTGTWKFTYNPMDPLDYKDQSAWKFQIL

This assay addresses CRX (UniProt O43186). The assay can be described thus: DAPPL (digital affinity profiling via proximity ligation, sequencing). The settings on record: 10 mM Tris-HCl pH 7.5, 50 mM NaCl, 1 mM DTT, 4% glycerol, room temperature, 30 min; GST-TFs on glutathione beads, 16-mer random dsDNA library, 0.1% …; high values mean tight binding; double strand, one strand shown; scale: fold enrichment (6-mer frequency, TF over GST control).
The sequence TCTCGG returned a binding signal of 1.44.

The sequence ACGCTG displayed a binding signal of 0.954.

Turning to AATGTC, the binding signal is 1.04.

Take ATGTAA: the binding signal is 1.41.

For the sequence ACTAAC, the binding signal is 1.18.

Regarding CGACGA, the binding signal turned out to be 0.976.

Turning to GATTTC, the binding signal worked out at 1.52.

Sequence TGCACT came in with a binding signal of 1.06.

Sequence GACATC showed a binding signal of 0.745.

TACGAT displayed a binding signal of 1.37.

Sequence TACGTA had a binding signal of 1.49.

As to TCCGGC, the binding signal was determined as 1.1.

In turn, GTAACT came in with a binding signal of 0.966.

The sequence GGAAAC registered a binding signal of 0.577.

GATGGT: the binding signal worked out at 0.935.

CCGATT gave a binding signal of 2.69.

For the sequence CCCACA, the binding signal is 0.878.

The sequence AAGTAA displayed a binding signal of 1.39.

Take CGACCT: the binding signal amounted to 1.21.

In turn, CGTTAC registered a binding signal of 0.864.

The sequence AATGAG registered a binding signal of 1.08.

As to CTCAGG, the binding signal turned out to be 0.984.

Take CTCTGG: the binding signal was determined as 1.35.

The sequence AACGCT came in with a binding signal of 1.17.

GCCCTT came in with a binding signal of 1.06.

Turning to ATGAAT, the binding signal turned out to be 1.2.

As for GAACCC, the binding signal was determined as 0.87.

Consider ACGCCC, for which the binding signal was 0.87.

Sequence ACCAAT registered a binding signal of 1.16.

Sequence TAAACA registered a binding signal of 1.53.

CTTTTC: the binding signal worked out at 1.25.

Consider ACTTTC, for which the binding signal was 1.63.

The sequence ACTTAA gave a binding signal of 2.66.

Take CCATTC: the binding signal came to 0.957.

Take TGCGTA: the binding signal was found to be 0.998.

TTGAAT yielded a binding signal of 1.17.

CAATAA yielded a binding signal of 1.46.

In the case of AACGTC, the binding signal was determined as 0.899.

Take CGCTCC: the binding signal was found to be 0.942.

These data come from publication PMC7862700.
